Data on eight molecules can be found in patent US20250283871A1, “COMPOSITIONS AND METHODS FOR MODULATING THE INTERACTION BETWEEN SS18-SSX FUSION ONCOPROTEIN AND NUCLEOSOMES” (Dana-Farber Cancer Institute, Inc., priority 2020, published 2025).

The data set has as its system BAF complex subunits and histone proteins. The data set is described as follows: Mass spectrometry proteomics of purified HA-SS18 WT and HA-SS18-SSX1 complexes (Tables 5A-5E). The arrangement: species or system human. The settings on record: for Total / Unique: HA-SS18SSX1_CHR_peptides; for Total: total peptides of the identified protein; for Unique: unique peptides of the identified protein.

The mark [1] stands for this setting: HA-SS18SSX1_NE_peptides: protein co-purified with HA-SS18-SSX1 BAF complexes from soluble nuclear extract (NE), HEK-293T cells.
[2] abbreviates: HA-SS18WT_NE_peptides: proteins co-purified with HA-SS18 WT from nuclear extract (NE), HEK-293T.
The mark [3] stands for this setting: HA-SS18WT_CHR_peptides: protein identified in HA-SS18 WT BAF complex purification from nuclease-treated solubilized chromatin (CHR), HEK-293T.
Setting [4] is: HA-SS18WT_NE_peptides: HA-SS18 WT complexes purified from nuclear extract (NE), HEK-293T, label = protein identified (Gene Symbol).
[5] abbreviates: HA-SS18SSX1 purification, NE (soluble nuclear extract) fraction, HEK-293T, peptides per identified protein.
The mark [6] stands for this setting: HA-SS18WT_CHR_peptides: HA-SS18 WT purification from nuclease-treated solubilized chromatin (CHR), HEK-293T, label = protein identified.
Setting [7] is: HA-SS18SSX1_CHR_peptides: protein identified in the HA-SS18-SSX1 purification from solubilized chromatin (CHR), HEK-293T.

B1: RBM4B (protein, UniProt Q9BQ04 1-359, looked up)
RNA-binding protein 4B: MVKLFIGNLPREATEQEIRSLFEQYGKVLECDIIKNYGFVHIEDKTAAEDAIRNLHHYKLHGVNINVEASKNKSKASTKLHVGNISPTCTNQELRAKFEEYGPVIECDIVKDYAFVHMERAEDAVEAIRGLDNTEFQGKRMHVQLSTSRLRTAPGMGDQSGCYRCGKEGHWSKECPVDRTGRVADFTEQYNEQYGAVRTPYTMGYGESMYYNDAYGALDYYKRYRVRSYEAVAAAAAASAYNYAEQTMSHLPQVQSTTVTSHLNSTSVDPYDRHLLPNSGAAATSAAMAAAAATTSSYYGRDRSPLRRAAAMLPTVGEGYGYGPESELSQASAATRNSLYDMARYEREQYVDRARYSAF
Turning to B1, the Total is 1 and the Unique is on record as 1.

B2: PHB (protein, UniProt P35232 2-272, looked up)
Prohibitin 1: AAKVFESIGKFGLALAVAGGVVNSALYNVDAGHRAVIFDRFRGVQDIVVGEGTHFLIPWVQKPIIFDCRSRPRNVPVITGSKDLQNVNITLRILFRPVASQLPRIFTSIGEDYDERVLPSITTEILKSVVARFDAGELITQRELVSRQVSDDLTERAATFGLILDDVSLTHLTFGKEFTEAVEAKQVAQQEAERARFVVEKAEQQKKAAIISAEGDSKAAELIANSLATAGDGLIELRKLEAAEDIAYQLSRSRNITYLPAGQSVLLQLPQ
Take B2: the Total came to 1 and the Unique amounted to 1. For the same molecule, under setting [1], the “Total (peptides)” value worked out at 1 and the “Unique (peptides)” value worked out at 1. Moreover, under setting [2], the “Total (peptides)” value was determined as 1 and the “Unique (peptides)” value is recorded as 1.

B3: HNRNPA0 (protein, UniProt Q13151 1-305, looked up)
Heterogeneous nuclear …: MENSQLCKLFIGGLNVQTSESGLRGHFEAFGTLTDCVVVVNPQTKRSRCFGFVTYSNVEEADAAMAASPHAVDGNTVELKRAVSREDSARPGAHAKVKKLFVGGLKGDVAEGDLIEHFSQFGTVEKAEIIADKQSGKKRGFGFVYFQNHDAADKAAVVKFHPIQGHRVEVKKAVPKEDIYSGGGGGGSRSSRGGRGGRGRGGGRDQNGLSKGGGGGYNSYGGYGGGGGGGYNAYGGGGGGSSYGGSDYGNGFGGFGSYSQHQSSYGPMKSGGGGGGGGSSWGGRSNSGPYRGGYGGGGGYGGSSF
With B3, the Total is on record as 1 and the Unique came out at 1. Besides, under setting [3], the “Total (total peptides)” value came to 1 and the “Unique (unique peptides)” value came out at 1.

B4: DPF1 (protein, UniProt Q92782 1-387, looked up)
Zinc finger protein neuro-d4: MATVIPGPLSLGEDFYREAIEHCRSYNARLCAERSLRLPFLDSQTGVAQNNCYIWMEKTHRGPGLAPGQIYTYPARCWRKKRRLNILEDPRLRPCEYKIDCEAPLKKEGGLPEGPVLEALLCAETGEKKIELKEEETIMDCQKQQLLEFPHDLEVEDLEDDIPRRKNRAKGKAYGIGGLRKRQDTASLEDRDKPYVCDICGKRYKNRPGLSYHYTHTHLAEEEGEENAERHALPFHRKNNHKQFYKELAWVPEAQRKHTAKKAPDGTVIPNGYCDFCLGGSKKTGCPEDLISCADCGRSGHPSCLQFTVNMTAAVRTYRWQCIECKSCSLCGTSENDDQLLFCDDCDRGYHMYCLSPPMAEPPEGSWSCHLCLRHLKEKASAYITLT
With B4, the Total was determined as 1 and the Unique amounted to 1. In addition, under setting [1], the “Total (peptides)” value is given as 3 and the “Unique (peptides)” value turned out to be 2. Moreover, under setting [4], the “Total (peptides)” value came out at 4 and the “Unique (peptides)” value is on record as 3. In addition, under setting [2], the “Total (peptides)” value was 2 and the “Unique (peptides)” value stood at 1.

B5: PHC3 (protein, UniProt Q8NDX5 1-983, looked up)
Polyhomeotic-like protein 3: MDTEPNPGTSSVSTTTSSTTTTTITTSSSRMQQPQISVYSGSDRHAVQVIQQALHRPPSSAAQYLQQMYAAQQQHLMLHTAALQQQHLSSSQLQSLAAVQASLSSGRPSTSPTGSVTQQSSMSQTSINLSTSPTPAQLISRSQASSSTSGSITQQTMLLGSTSPTLTASQAQMYLRAQMLIFTPATTVAAVQSDIPVVSSSSSSSCQSAATQVQNLTLRSQKLGVLSSSQNGPPKSTSQTQSLTICHNKTTVTSSKISQRDPSPESNKKGESPSLESRSTAVTRTSSIHQLIAPASYSPIQPHSLIKHQQIPLHSPPSKVSHHQLILQQQQQQIQPITLQNSTQDPPPSQHCIPLQNHGLPPAPSNAQSQHCSPIQSHPSPLTVSPNQSQSAQQSVVVSPPPPHSPSQSPTIIIHPQALIQPHPLVSSALQPGPNLQQSTANQVQATAQLNLPSHLPLPASPVVHIGPVQQSALVSPGQQIVSPSHQQYSSLQSSPIPIASPPQMSTSPPAQIPPLPLQSMQSLQVQPEILSQGQVLVQNALVSEEELPAAEALVQLPFQTLPPPQTVAVNLQVQPPAPVDPPVVYQVEDVCEEEMPEESDECVRMDRTPPPPTLSPAAITVGRGEDLTSEHPLLEQVELPAVASVSASVIKSPSDPSHVSVPPPPLLLPAATTRSNSTSMHSSIPSIENKPPQAIVKPQILTHVIEGFVIQEGLEPFPVSRSSLLIEQPVKKRPLLDNQVINSVCVQPELQNNTKHADNSSDTEMEDMIAEETLEEMDSELLKCEFCGKMGYANEFLRSKRFCTMSCAKRYNVSCSKKFALSRWNRKPDNQSLGHRGRRPSGPDGAAREHILRQLPITYPSAEEDLASHEDSVPSAMTTRLRRQSERERERELRDVRIRKMPENSDLLPVAQTEPSIWTVDDVWAFIHSLPGCQDIADEFRAQEIDGQALLLLKEDHLMSAMNIKLGPALKICARINSLKES
The molecule B5 gave a Total of 1 and a Unique of 1.

B6: ZSCAN25 (protein, UniProt Q6NSZ9 1-544, looked up)
Zinc finger and SCAN …: MLKEHPEMAEAPQQQLGIPVVKLEKELPWGRGREDPSPETFRLRFRQFRYQEAAGPQEALRELQELCRRWLRPELHTKEQILELLVLEQFLTILPREFYAWIREHGPESGKALAAMVEDLTERALEAKAVPCHRQGEQEETALCRGAWEPGIQLGPVEVKPEWGMPPGEGVQGPDPGTEEQLSQDPGDETRAFQEQALPVLQAGPGLPAVNPRDQEMAAGFFTAGSQGLGPFKDMALAFPEEEWRHVTPAQIDCFGEYVEPQDCRVSPGGGSKEKEAKPPQEDLKGALVALTSERFGEASLQGPGLGRVCEQEPGGPAGSAPGLPPPQHGAIPLPDEVKTHSSFWKPFQCPECGKGFSRSSNLVRHQRTHEEKSYGCVECGKGFTLREYLMKHQRTHLGKRPYVCSECWKTFSQRHHLEVHQRSHTGEKPYKCGDCWKSFSRRQHLQVHRRTHTGEKPYTCECGKSFSRNANLAVHRRAHTGEKPYGCQVCGKRFSKGERLVRHQRIHTGEKPYHCPACGRSFNQRSILNRHQKTQHRQEPLVQ
For the molecule B6, the Total was found to be 1 and the Unique amounted to 1. Besides, under setting [5], the “Total (total peptides)” value was found to be 3 and the “Unique (unique peptides)” value is 3. Under setting [6], the “Total (peptides)” value amounted to 6 and the “Unique (peptides)” value is recorded as 5. Under setting [2], the “Total (peptides)” value is listed as 1 and the “Unique (peptides)” value is recorded as 1.

B7: UBTF (protein, UniProt P17480 1-764, looked up)
Nucleolar transcription …: MNGEADCPTDLEMAAPKGQDRWSQEDMLTLLECMKNNLPSNDSSKFKTTESHMDWEKVAFKDFSGDMCKLKWVEISNEVRKFRTLTELILDAQEHVKNPYKGKKLKKHPDFPKKPLTPYFRFFMEKRAKYAKLHPEMSNLDLTKILSKKYKELPEKKKMKYIQDFQREKQEFERNLARFREDHPDLIQNAKKSDIPEKPKTPQQLWYTHEKKVYLKVRPDATTKEVKDSLGKQWSQLSDKKRLKWIHKALEQRKEYEEIMRDYIQKHPELNISEEGITKSTLTKAERQLKDKFDGRPTKPPPNSYSLYCAELMANMKDVPSTERMVLCSQQWKLLSQKEKDAYHKKCDQKKKDYEVELLRFLESLPEEEQQRVLGEEKMLNINKKQATSPASKKPAQEGGKGGSEKPKRPVSAMFIFSEEKRRQLQEERPELSESELTRLLARMWNDLSEKKKAKYKAREAALKAQSERKPGGEREERGKLPESPKRAEEIWQQSVIGDYLARFKNDRVKALKAMEMTWNNMEKKEKLMWIKKAAEDQKRYERELSEMRAPPAATNSSKKMKFQGEPKKPPMNGYQKFSQELLSNGELNHLPLKERMVEIGSRWQRISQSQKEHYKKLAEEQQKQYKVHLDLWVKSLSPQDRAAYKEYISNKRKSMTKLRGPNPKSSRTTLQSKSESEEDDEEDEDDEDEDEEEEDDENGDSSEDGGDSSESSSEDESEDGDENEEDDEDEDDDEDDDEDEDNESEGSSSSSSSSGDSSDSDSN
As to B7, under setting [7], the “Total (total peptides)” value is given as 27 and the “Unique (unique peptides)” value is 20. For the same molecule, under setting [1], the “Total (peptides)” value came out at 2 and the “Unique (peptides)” value is given as 2. In addition, under setting [6], the “Total (peptides)” value was determined as 9 and the “Unique (peptides)” value came to 9.

B8: NUP88 (protein, UniProt Q99567 2-741, looked up)
Nuclear pore complex protein …: AAAEGPVGDGELWQTWLPNHVVFLRLREGLKNQSPTEAEKPASSSLPSSPPPQLLTRNVVFGLGGELFLWDGEDSSFLVVRLRGPSGGGEEPALSQYQRLLCINPPLFEIYQVLLSPTQHHVALIGIKGLMVLELPKRWGKNSEFEGGKSTVNCSTTPVAERFFTSSTSLTLKHAAWYPSEILDPHVVLLTSDNVIRIYSLREPQTPTNVIILSEAEEESLVLNKGRAYTASLGETAVAFDFGPLAAVPKTLFGQNGKDEVVAYPLYILYENGETFLTYISLLHSPGNIGKLLGPLPMHPAAEDNYGYDACAVLCLPCVPNILVIATESGMLYHCVVLEGEEEDDHTSEKSWDSRIDLIPSLYVFECVELELALKLASGEDDPFDSDFSCPVKLHRDPKCPSRYHCTHEAGVHSVGLTWIHKLHKFLGSDEEDKDSLQELSTEQKCFVEHILCTKPLPCRQPAPIRGFWIVPDILGPTMICITSTYECLIWPLLSTVHPASPPLLCTREDVEVAESPLRVLAETPDSFEKHIRSILQRSVANPAFLKASEKDIAPPPEECLQLLSRATQVFREQYILKQDLAKEEIQRRVKLLCDQKKKQLEDLSYCREERKSLREMAERLADKYEEAKEKQEDIMNRMKKLLHSFHSELPVLSDSERDMKKELQLIPDQLRHLGNAIKQVTMKKDYQQQKMEKVLSLPKPTIILSAYQRKCIQSILKEEGEHIREMVKQINDIRNHVNF
B8 returned a Total of 1 and a Unique of 1.
